# Results reported in the supplement of paper PMC9135407.
# Where “and” joins values, the source holds several entries; their conditions need not be identical. Equal entries are not always repeated. Structures can show the parent of a compound that is named as a salt. ± gives the standard deviation of the averaged measurements. Some of the results follow. Part of the spread comes from offsets between plates or batches.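 Culture-activated primary human stellate myofibroblasts, where regained lipid droplets signal inactivation. Value: share of Hoechst-counted cells above a per-plate Bodipy cutoff, in duplicate wells, with DMSO negative and nortriptyline positive controls on each plate. Hits: a control-normalized score above the plate's top-tenth-percentile nortriptyline wells, or one of a plate's three best wells. Final well concentrations are not given.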
# Tested on: primary human hepatic stellate cells (donor 1)
# Experiment: percent Bodipy-positive cells; higher = more lipid droplet accumulation
# Conditions: 48 h
# [1] = library stock concentration: 3.33 mM
# [2] = library stock concentration: 10 mM
# [3] = library stock concentration: 1 mM
# [4] = library stock concentration: 9.9 mM
# [5] = library stock concentration: 8.3 mM
structure (smiles),measurement,setting,value
CC(C)[C@]12O[C@H]1[C@@H]1O[C@]13[C@]1(O[C@H]1C[C@H]1C4=C(CC[C@@]13C)C(=O)OC4)[C@@H]2O [Triptolide (PG490)],percent Bodipy-positive cells,[1],52 ± 8.6%
same,percent Bodipy-positive cells,[2],70.6 ± 14%
CC(C)[C@]12O[C@H]1[C@@H]1O[C@]13[C@]1(O[C@H]1C[C@H]1C4=C(CC[C@@]13C)C(=O)OC4)[C@@H]2O,percent Bodipy-positive cells,[2],42.6 ± 13%
NCC(CC(=O)O)c1ccc(Cl)cc1 (stereo not given) [(?)-Baclofen],percent Bodipy-positive cells,[2],58.5 ± 9.6%
NCC(CC(=O)O)c1ccc(Cl)cc1 (stereo not given) [Baclofen],percent Bodipy-positive cells,library stock concentration: 9.4 mM,2.99 ± 0.12%
same,percent Bodipy-positive cells,[2],20.9 ± 17%
"CN1CC[C@@]2(C)c3cc(O)ccc3N(C)C12 (single isomer, unassigned; (-)) [(-)-Eseroline fumarate]",percent Bodipy-positive cells,[2],96.5 ± 1.2%
CC(C)(C)c1cc(C=C(C#N)C#N)cc(Br)c1O,percent Bodipy-positive cells,[1],11.2% and 10.7%
same,percent Bodipy-positive cells,[2],24.4 ± 4.4%
CC(=O)[C@H]1CC[C@H]2[C@@H]3CC[C@H]4C[C@H](O)CC[C@]4(C)[C@H]3CC[C@]12C [5alpha-Pregnan-3alpha-ol-20-one],percent Bodipy-positive cells,[2],19.3 ± 7.3%
CCN1C[C@]2(C)CC[C@H](O)[C@]34C1[C@@H](C[C@H]23)[C@@]1(O)C[C@H](OC)[C@H]2C[C@@H]4[C@@H]1[C@H]2O [Karakoline],percent Bodipy-positive cells,,12.5 ± 1%
COc1cc(CNC(=O)CCCCCCC(C)C)c(I)cc1O,percent Bodipy-positive cells,[3],7.29 ± 3.7%
NC(=S)N/N=C/c1coc2ccccc2c1=O.[Cl][Cu][Cl],percent Bodipy-positive cells,[2],3.33 ± 0.41%
O=C(NCCN1CCC2(CC1)C(=O)NCN2c1ccccc1)c1ccc2ccccc2c1,percent Bodipy-positive cells,[3],14.6 ± 1.8%
CC(N)Cc1ccc(O)cc1 (stereo not given) [Hydroxyamphetamine hydrobromide],percent Bodipy-positive cells,[2],29.2 ± 8.9%
"CN1CCC2(C)c3cc(O)ccc3N(C)C12 (single isomer, unassigned; (-)) [(-)-Eseroline fumarate salt]",percent Bodipy-positive cells,,31.808 ± 0.015%
O=C1NC(=O)c2c1c1c3ccccc3n3c1c1c2c2ccccc2n1[C@H]1CC[C@@H]3O1,percent Bodipy-positive cells,[1],68.2 ± 7.2%
C=C1[C@@H](C)[C@H]2[C@H](Cc3ccccc3)NC(=O)C23[C@H](OC(C)=O)/C=C/[C@](C)(O)C(=O)[C@@H](C)C/C=C/[C@H]3[C@@H]1O (stereo not given in full) [Cytochalasin D],percent Bodipy-positive cells,[4],99.1 ± 1.3%
Cc1onc(O)c1CC(N)C(=O)O (racemic),percent Bodipy-positive cells,[2],6.24 ± 2.9%
Cc1onc(O)c1CC(N)C(=O)O (racemic) [(RS)-AMPA hydrobromide],percent Bodipy-positive cells,[2],8.88 ± 0.89%
CN(C)C(=S)SSC(=S)N(C)C [Thiram],percent Bodipy-positive cells,[5],96.3 ± 2.1%
C=C/C=C\CC1=C(C)[C@@H](OC(=O)[C@@H]2[C@@H](/C=C(\C)C(=O)OC)C2(C)C)CC1=O.C=C/C=C\CC1=C(C)[C@@H](OC(=O)[C@@H]2[C@@H](C=C(C)C)C2(C)C)CC1=O,percent Bodipy-positive cells,[2],39.9 ± 10%
NCc1cccnc1,percent Bodipy-positive cells,[2],25.9 ± 4%
CC(NC(C)(C)C)C(=O)c1cccc(Cl)c1 (stereo not given) [Amfebutamone],percent Bodipy-positive cells,[5],9.55 ± 1.1%
CC(NC(C)(C)C)C(=O)c1cccc(Cl)c1 (stereo not given) [Bupropion hydrochloride],percent Bodipy-positive cells,,25.3 ± 9.1%
same,percent Bodipy-positive cells,[2],38.5 ± 6.9%
CC(NC(C)(C)C)C(=O)c1cccc(Cl)c1 (stereo not given) [Bupropion],percent Bodipy-positive cells,library stock concentration: 7.2 mM,47 ± 11%
same,percent Bodipy-positive cells,[2],47.4 ± 4.6%
CC(NC(C)(C)C)C(=O)c1cccc(Cl)c1 (stereo not given),percent Bodipy-positive cells,[2],17.8 ± 0.89%
CC(NC(C)(C)C)C(=O)c1cccc(Cl)c1 (stereo not given) [Amfebutamone HCl],percent Bodipy-positive cells,[1],16.3 ± 0.62%
same,percent Bodipy-positive cells,[2],9.12 ± 2.2%
N[C@]1(C(=O)O)CC[C@H](C(=O)O)C1,percent Bodipy-positive cells,[2],32.8 ± 6.3%
Oc1ccc2c3c1O[C@H]1c4[nH]c5ccccc5c4C[C@@]4(O)[C@@H](C2)N(CC2CC2)CC[C@]314 [Naltrindole HCl],percent Bodipy-positive cells,library stock concentration: 4.8 mM,41.2 ± 9.7%
Oc1ccc2c3c1O[C@H]1c4[nH]c5ccccc5c4C[C@@]4(O)[C@@H](C2)N(CC2CC2)CC[C@]314 [Naltrindole],percent Bodipy-positive cells,[2],78.5 ± 5.5%
CN(C)[C@@H]1C(=O)C(C(N)=O)=C(O)[C@@]2(O)C(=O)C3=C(O)c4c(O)cccc4[C@@](C)(O)[C@H]3C[C@@H]12 [Tetracycline HCl],percent Bodipy-positive cells,[1],11.8 ± 5.8%
same,percent Bodipy-positive cells,[2],11.3 ± 6.8%
"Cc1cc(C)cc(C(=O)OC2C[C@H]3CC[C@@H](C2)N3C)c1 (stereo not given in full) [Tropanyl-3,5-dimethylbenzoate]",percent Bodipy-positive cells,[2],49.2 ± 12%
C[C@@H]1O[C@@H](O[C@H]2CC[C@]3(C=O)[C@H]4CC[C@]5(C)[C@@H](C6=CC(=O)OC6)CC[C@]5(O)[C@@H]4CC[C@]3(O)C2)[C@H](O)[C@H](O)[C@H]1O [Convallatoxin],percent Bodipy-positive cells,[2],87.7 ± 3.2%
CCCCC/C=C\C/C=C\CCCCCCCC(=O)NCCO [Linoleoyl Ethanolamide],percent Bodipy-positive cells,[3],6.71 ± 1.9%
CN1[C@@H]2C[C@@H](OC(=O)[C@H](CO)c3ccccc3)C[C@H]1[C@@H]1O[C@@H]12 [Scopolamine hydrobromide],percent Bodipy-positive cells,library stock concentration: 5.2 mM,19.2 ± 3%
same,percent Bodipy-positive cells,[2],11.5% and 10.5%
CN1[C@@H]2C[C@@H](OC(=O)[C@H](CO)c3ccccc3)C[C@H]1[C@@H]1O[C@@H]12 [(-)-Scopolamine hydrobromide],percent Bodipy-positive cells,[2],16.5 ± 1.6%
CN1[C@@H]2C[C@@H](OC(=O)[C@H](CO)c3ccccc3)C[C@H]1[C@@H]1O[C@@H]12 [Scopolamine HBr],percent Bodipy-positive cells,[1],7.415 ± 0.012%
same,percent Bodipy-positive cells,library stock concentration: 6.6 mM,7.25 ± 2.7%
same,percent Bodipy-positive cells,[2],13.7 ± 1.6%
CN1[C@@H]2C[C@@H](OC(=O)[C@H](CO)c3ccccc3)C[C@H]1[C@@H]1O[C@@H]12 [Scopolamine hydrochloride],percent Bodipy-positive cells,,8.59 ± 0.44%
O=C(O)C1=CCCN(CCOC(c2ccc(C(F)(F)F)cc2)c2ccc(C(F)(F)F)cc2)C1 [CI 966 hydrochloride],percent Bodipy-positive cells,[2],8.65 ± 2.5%
CN[C@@H](C)[C@@H](O)c1ccccc1 [Pseudoephedrine hydrochloride],percent Bodipy-positive cells,[4],16.3 ± 5.4%
same,percent Bodipy-positive cells,[2],10.8 ± 0.14%
C[C@]12CC[C@H](O)C[C@H]1CC[C@@H]1[C@@H]2C[C@@H](O)[C@]2(C)[C@@H](C3=CC(=O)OC3)CC[C@]12O [Digoxigenin],percent Bodipy-positive cells,,70.4 ± 7.2%
C/C(=C\c1csc(C)n1)[C@@H]1C[C@@H]2O[C@@H]2CCC[C@H](C)[C@H](O)[C@@H](C)C(=O)C(C)(C)[C@@H](O)CC(=O)O1 [Epothilone A],percent Bodipy-positive cells,[1],11.2 ± 3.3%
same,percent Bodipy-positive cells,[2],19.4 ± 5.1%
COC1=C[C@@H]2[C@@H]3Cc4ccc(OC)c(O)c4[C@]2(CCN3C)CC1=O [Sinomenine],percent Bodipy-positive cells,[1],6.59 ± 1.7%
same,percent Bodipy-positive cells,[2],14.1 ± 4%
CCCCC/C=C\C/C=C\C/C=C\C=C\[C@H](CCCC(=O)O)OO,percent Bodipy-positive cells,library stock concentration: 100 uM,12.6 ± 9.4%
COc1ccc(N(C(=O)Oc2c(C)cccc2C)c2ccnc(Nc3ccc(N4CCN(C)CC4)cc3)n2)c(OC)c1,percent Bodipy-positive cells,library stock concentration: 80 uM,14.3 ± 0.16%
same,percent Bodipy-positive cells,library stock concentration: 400 uM,26.5 ± 2.4%
same,percent Bodipy-positive cells,library stock concentration: 2 mM,18.3 ± 12%
same,percent Bodipy-positive cells,[1],83.6 ± 9.9%
same,percent Bodipy-positive cells,[2],98.9% and 100%

# In a second layout: results already given.
structure (smiles) | measurement | setting | value
O=C1NC(=O)c2c1c1c3ccccc3n3c1c1c2c2ccccc2n1[C@H]1CC[C@@H]3O1 | percent Bodipy-positive cells | [1] | 68.2 ± 7.2%
NCc1cccnc1 | percent Bodipy-positive cells | [2] | 25.9 ± 4%
CC(NC(C)(C)C)C(=O)c1cccc(Cl)c1 (stereo not given) [Bupropion] | percent Bodipy-positive cells | library stock concentration: 7.2 mM | 47 ± 11%
